PubChem BioAssay AID504791 | Drosophila RNAi Screening Center – 2011
In all, the deposit lists about 23,000 reagents; below is a random part of those that have a named target and a result. Of all reagents, 199 (0.86%) were called active. 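Plate-scaled ratios behind the calls are not deposited; printed light signals are raw; many rows marked increased or decreased are still called inactive.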 The record does not give: the direction of the score.

Purpose: 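Factors in Argonaute-based small RNA production and activity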 (primary screen)
Cells: Drosophila S2-derived reporter cells
Reagent: long dsRNA against Drosophila genes, about 150-250 ng dsRNA per well (siRNA assay); about 80-120 ng (miRNA assay)
Duration: about 5 days (siRNA assay); about 4 days (miRNA assay)
Treatment: copper sulfate induction of reporters: 25 µM (siRNA assay); 200 mM stated (miRNA assay), 1-2 days before reading
Read-out: 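Per-well ratio of Renilla over firefly light, expressed relative to that plate's average ratio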
Active means: 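First-pass picks had plate-scaled ratios over 1.5 for the siRNA assay, over 1.6 for the miRNA assay, or under 0.6; two distinct dsRNAs had to score alike on retest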

{"gene": "Rnmt", "amplicon": "DRSC03558", "stable assay Renilla, run 1 (luminescence)": 9283, "stable assay firefly, run 1 (luminescence)": 4.47e5, "call": "inactive"}
{"gene": "Arl6", "amplicon": "DRSC07031", "stable assay Renilla, run 1 (luminescence)": 6472, "stable assay firefly, run 1 (luminescence)": 3.63e5, "call": "inactive"}
{"gene": "CG14332", "amplicon": "DRSC14811", "stable assay Renilla, run 1 (luminescence)": 6379, "stable assay firefly, run 1 (luminescence)": 3.27e5, "call": "inactive"}
{"gene": "Cpr72Ec", "amplicon": "DRSC10449", "stable assay Renilla, run 1 (luminescence)": 9095, "stable assay firefly, run 1 (luminescence)": 3.09e5, "call": "inactive"}
{"gene": "CG34168", "amplicon": "DRSC01938", "stable assay Renilla, run 1 (luminescence)": 6470, "stable assay firefly, run 1 (luminescence)": 5.16e5, "call": "inactive"}
{"gene": "Cht11", "amplicon": "DRSC18270", "stable assay Renilla, run 1 (luminescence)": 5080, "stable assay firefly, run 1 (luminescence)": 2.99e5, "call": "inactive"}
{"gene": "CG11975", "amplicon": "DRSC14452", "stable assay Renilla, run 1 (luminescence)": 9045, "stable assay firefly, run 1 (luminescence)": 3.52e5, "call": "inactive"}
{"gene": "MAGE", "amplicon": "DRSC12504", "stable assay Renilla, run 1 (luminescence)": 6559, "stable assay firefly, run 1 (luminescence)": 3.21e5, "call": "inactive"}
{"gene": "CG14329", "amplicon": "DRSC14808", "stable assay Renilla, run 1 (luminescence)": 5799, "stable assay firefly, run 1 (luminescence)": 2.99e5, "call": "inactive"}
{"gene": "spidey", "amplicon": "DRSC17932", "stable assay Renilla, run 1 (luminescence)": 5391, "stable assay firefly, run 1 (luminescence)": 3.58e5, "call": "inactive"}
{"gene": "Tak1", "amplicon": "DRSC20390", "stable assay Renilla, run 1 (luminescence)": 3975, "stable assay firefly, run 1 (luminescence)": 3.88e5, "call": "inactive"}
{"gene": "Tak1", "amplicon": "DRSC20561", "stable assay Renilla, run 1 (luminescence)": 6260, "stable assay firefly, run 1 (luminescence)": 4.73e5, "call": "inactive"}
{"gene": "Tak1", "amplicon": "DRSC20562", "stable assay Renilla, run 1 (luminescence)": 6380, "stable assay firefly, run 1 (luminescence)": 5.36e5, "call": "inactive"}
{"gene": "AgmNAT", "amplicon": "DRSC18072", "stable assay Renilla, run 1 (luminescence)": 5990, "stable assay firefly, run 1 (luminescence)": 2.77e5, "call": "inactive"}
{"gene": "CG9287", "amplicon": "DRSC03186", "stable assay Renilla, run 1 (luminescence)": 5068, "stable assay firefly, run 1 (luminescence)": 4.47e5, "call": "inactive"}
{"gene": "CG9287", "amplicon": "DRSC22790", "stable assay Renilla, run 1 (luminescence)": 4704, "stable assay firefly, run 1 (luminescence)": 3.84e5, "call": "inactive"}

Reformatted: 2 of the entries above
CG34168 [DRSC01938] → stable assay Renilla, run 1 (luminescence): 6470; stable assay firefly, run 1 (luminescence): 5.16e5; call: inactive
Cht11 [DRSC18270] → stable assay Renilla, run 1 (luminescence): 5080; stable assay firefly, run 1 (luminescence): 2.99e5; call: inactive

Further results:
{"gene": "Osi19", "amplicon": "DRSC12569", "stable assay Renilla, run 1 (luminescence)": 6882, "stable assay firefly, run 1 (luminescence)": 4.98e5, "call": "inactive"}
{"gene": "Jhbp13", "amplicon": "DRSC02913", "stable assay Renilla, run 1 (luminescence)": 6879, "stable assay firefly, run 1 (luminescence)": 5.48e5, "call": "inactive"}
{"gene": "CG7548", "amplicon": "DRSC10874", "stable assay Renilla, run 1 (luminescence)": 6674, "stable assay firefly, run 1 (luminescence)": 3.98e5, "call": "inactive"}
{"gene": "GstE5", "amplicon": "DRSC06675", "stable assay Renilla, run 1 (luminescence)": 4952, "stable assay firefly, run 1 (luminescence)": 2.38e5, "call": "inactive"}
{"gene": "CG4213", "amplicon": "DRSC00641", "stable assay Renilla, run 1 (luminescence)": 7811, "stable assay firefly, run 1 (luminescence)": 4.84e5, "call": "inactive"}
{"gene": "CG3285", "amplicon": "DRSC00589", "stable assay Renilla, run 1 (luminescence)": 24736, "stable assay firefly, run 1 (luminescence)": 1.24e5, "call": "inactive"}
{"gene": "NUCB1", "amplicon": "DRSC22137", "stable assay Renilla, run 1 (luminescence)": 10138, "stable assay firefly, run 1 (luminescence)": 7.04e5, "call": "inactive"}
{"gene": "CG5116", "amplicon": "DRSC15720", "stable assay Renilla, run 1 (luminescence)": 5487, "stable assay firefly, run 1 (luminescence)": 5.60e5, "call": "inactive"}
{"gene": "fs(1)N", "amplicon": "DRSC18578", "stable assay Renilla, run 1 (luminescence)": 5758, "stable assay firefly, run 1 (luminescence)": 3.78e5, "call": "inactive"}
{"gene": "bou", "amplicon": "DRSC17924", "stable assay Renilla, run 1 (luminescence)": 5188, "stable assay firefly, run 1 (luminescence)": 2.72e5, "call": "inactive"}
{"gene": "CG10845", "amplicon": "DRSC14272", "stable assay Renilla, run 1 (luminescence)": 6814, "stable assay firefly, run 1 (luminescence)": 4.00e5, "call": "inactive"}
{"gene": "CG9951", "amplicon": "DRSC11105", "stable assay Renilla, run 1 (luminescence)": 8558, "stable assay firefly, run 1 (luminescence)": 2.73e5, "call": "inactive"}
{"gene": "GstD5", "amplicon": "DRSC16686", "stable assay Renilla, run 1 (luminescence)": 6440, "stable assay firefly, run 1 (luminescence)": 3.79e5, "call": "inactive"}
{"gene": "tipE", "amplicon": "DRSC08738", "stable assay Renilla, run 1 (luminescence)": 7547, "stable assay firefly, run 1 (luminescence)": 3.46e5, "call": "inactive"}
{"gene": "mxc", "amplicon": "DRSC17819", "stable assay Renilla, run 1 (luminescence)": 3435, "stable assay firefly, run 1 (luminescence)": 3.72e5, "call": "inactive"}
{"gene": "wts", "amplicon": "DRSC17096", "stable siRNA reporter change": "reporter ratio raised past the hit cutoff", "stable assay Renilla, run 1 (luminescence)": 5288, "stable assay firefly, run 1 (luminescence)": 2.03e5, "call": "inactive"}
{"gene": "wts", "amplicon": "DRSC22975", "stable siRNA reporter change": "reporter ratio raised past the hit cutoff", "stable assay Renilla, run 1 (luminescence)": 3671, "stable assay firefly, run 1 (luminescence)": 1.60e5, "call": "inactive"}
{"gene": "CG30183", "amplicon": "DRSC04450", "stable assay Renilla, run 1 (luminescence)": 6698, "stable assay firefly, run 1 (luminescence)": 3.95e5, "call": "inactive"}
{"gene": "CG30183", "amplicon": "DRSC04472", "stable assay Renilla, run 1 (luminescence)": 6716, "stable assay firefly, run 1 (luminescence)": 3.63e5, "call": "inactive"}
